These are literature values, as cited in US20100324036A1, “SUBSTITUTED IMIDAZOPYRIDINE DERIVATIVES AS MELANOCORTIN-4 RECEPTOR ANTAGONISTS” (SANTHERA PHARMACEUTICALS (SCHWEIZ) AG, priority 2007, published 2010).

The conditions of the data set: control compounds of the Caco-2 assay; Zhao et al. 2001; cited from earlier work.

Consider `CC(C)NCC(O)COc1ccc(CC(N)=O)cc1` (stereo not shown) [atenolol], for which the human absorption entry is given as “approximately 50%”.
